Test results as given in the supplement of paper PMC11264405.

Assays:
Assay in all cases: minimum inhibitory concentration
linezolid = compound: CC(=O)NC[C@H]1CN(c2ccc(N3CCOCC3)c(F)c2)C(=O)O1 [linezolid]
imipenem = compound: C[C@@H](O)[C@H]1C(=O)N2C(C(=O)O)=C(SCCNC=N)C[C@H]12 [imipenem]
tigecycline = compound: CN(C)c1cc(NC(=O)CNC(C)(C)C)c(O)c2c1C[C@H]1C[C@H]3[C@H](N(C)C)C(O)=C(C(N)=O)C(=O)[C@@]3(O)C(O)=C1C2=O [tigecycline]
vancomycin = compound: CN[C@H](CC(C)C)C(=O)N[C@H]1C(=O)N[C@@H](CC(N)=O)C(=O)N[C@H]2C(=O)N[C@H]3C(=O)N[C@H](C(=O)N[C@H](C(=O)O)c4cc(O)cc(O)c4-c4cc3ccc4O)[C@H](O)c3ccc(c(Cl)c3)Oc3cc2cc(c3O[C@@H]2O[C@H](CO)[C@@H](O)[C@H](O)[C@H]2O[C@H]2C[C@](C)(N)[C@H](O)[C@H](C)O2)Oc2ccc(cc2Cl)[C@H]1O [vancomycin]
meropenem = compound: C[C@@H](O)[C@H]1C(=O)N2C(C(=O)O)=C(S[C@@H]3CN[C@H](C(=O)N(C)C)C3)[C@H](C)[C@H]12 [meropenem]
metronidazole = compound: Cc1ncc([N+](=O)[O-])n1CCO [metronidazole]
rifampicin = compound: CO[C@H]1/C=C/O[C@@]2(C)Oc3c(C)c(O)c4c(O)c(c(/C=N/N5CCN(C)CC5)c(O)c4c3C2=O)NC(=O)/C(C)=C\C=C\[C@H](C)[C@H](O)[C@@H](C)[C@@H](O)[C@@H](C)[C@H](OC(C)=O)[C@@H]1C [rifampicin]
fidaxomicin = compound: CCc1c(Cl)c(O)c(Cl)c(O)c1C(=O)O[C@H]1[C@H](O)[C@H](OC)[C@H](OC/C2=C\C=C\C[C@H](O)/C(C)=C/[C@H](CC)[C@@H](O[C@@H]3OC(C)(C)[C@@H](OC(=O)C(C)C)[C@H](O)[C@@H]3O)/C(C)=C/C(C)=C/C[C@@H]([C@@H](C)O)OC2=O)O[C@@H]1C [fidaxomicin]
clindamycin = compound: CCC[C@@H]1C[C@@H](C(=O)N[C@@H]([C@H]2O[C@H](SC)[C@H](O)[C@@H](O)[C@H]2O)[C@H](C)Cl)N(C)C1 [clindamycin]

Question: What does the source list for “Clostridioides difficile PCR ribotype 014 isolate #81 (European region: West, country: Belgium, isolate source: Human, ribotype: 014)”?
Answer: minimum inhibitory concentration (linezolid): 2 µg/mL; minimum inhibitory concentration (imipenem): 1 µg/mL; minimum inhibitory concentration (tigecycline): 0.06 µg/mL; minimum inhibitory concentration (vancomycin): 0.5 µg/mL; minimum inhibitory concentration (meropenem): 2 µg/mL; minimum inhibitory concentration (metronidazole): < 0.125 µg/mL; minimum inhibitory concentration (rifampicin): < 0.001 µg/mL; minimum inhibitory concentration (fidaxomicin): 0.03 µg/mL; minimum inhibitory concentration (clindamycin): 8 µg/mL

Question: With “Clostridioides difficile PCR ribotype 014 isolate #299 (European region: West, country: Austria, isolate source: Animal, ribotype: 014)” as the test system, how does the minimum inhibitory concentration (linezolid) read?
Answer: 2 µg/mL

Question: What about the minimum inhibitory concentration (imipenem) of the same test system?
Answer: 2 µg/mL

Question: And the minimum inhibitory concentration (tigecycline)?
Answer: 0.06 µg/mL

Question: And the minimum inhibitory concentration (vancomycin)?
Answer: 1 µg/mL

Question: What about the minimum inhibitory concentration (meropenem) of the same test system?
Answer: 4 µg/mL

Question: And the minimum inhibitory concentration (metronidazole)?
Answer: < 0.125 µg/mL

Question: And the minimum inhibitory concentration (rifampicin)?
Answer: < 0.001 µg/mL

Question: What about the minimum inhibitory concentration (fidaxomicin) of the same test system?
Answer: 0.03 µg/mL

Question: And the minimum inhibitory concentration (clindamycin)?
Answer: 8 µg/mL

Question: How did the minimum inhibitory concentration (linezolid) turn out when “Clostridioides difficile PCR ribotype 014 isolate #300 (European region: East, country: Romania, isolate source: Animal, ribotype: 014)” was run?
Answer: 2 µg/mL

Question: And the minimum inhibitory concentration (imipenem)?
Answer: 2 µg/mL

Question: What about the minimum inhibitory concentration (tigecycline) of the same test system?
Answer: < 0.03 µg/mL

Question: What about the minimum inhibitory concentration (vancomycin) of the same test system?
Answer: 1 µg/mL

Question: What about the minimum inhibitory concentration (meropenem) of the same test system?
Answer: 2 µg/mL

Question: And the minimum inhibitory concentration (metronidazole)?
Answer: < 0.125 µg/mL

Question: What about the minimum inhibitory concentration (rifampicin) of the same test system?
Answer: < 0.001 µg/mL

Question: And the minimum inhibitory concentration (fidaxomicin)?
Answer: 0.06 µg/mL

Question: And the minimum inhibitory concentration (clindamycin)?
Answer: 8 µg/mL

Question: Which results are given for “Clostridioides difficile PCR ribotype 014 isolate #301 (European region: West, country: Netherlands, isolate source: Animal, ribotype: 014)”?
Answer: minimum inhibitory concentration (linezolid): 2 µg/mL; minimum inhibitory concentration (imipenem): < 0.125 µg/mL; minimum inhibitory concentration (tigecycline): < 0.03 µg/mL; minimum inhibitory concentration (vancomycin): 0.5 µg/mL; minimum inhibitory concentration (meropenem): 4 µg/mL; minimum inhibitory concentration (metronidazole): < 0.125 µg/mL; minimum inhibitory concentration (rifampicin): < 0.001 µg/mL; minimum inhibitory concentration (fidaxomicin): 0.06 µg/mL; minimum inhibitory concentration (clindamycin): 16 µg/mL

Question: With “Clostridioides difficile PCR ribotype 014 isolate #302 (European region: West, country: France, isolate source: Animal, ribotype: 014)” as the test system, how does the minimum inhibitory concentration (linezolid) read?
Answer: 2 µg/mL

Question: What about the minimum inhibitory concentration (imipenem) of the same test system?
Answer: 2 µg/mL

Question: And the minimum inhibitory concentration (tigecycline)?
Answer: < 0.03 µg/mL

Question: What about the minimum inhibitory concentration (vancomycin) of the same test system?
Answer: 1 µg/mL

Question: And the minimum inhibitory concentration (meropenem)?
Answer: 4 µg/mL

Question: What about the minimum inhibitory concentration (metronidazole) of the same test system?
Answer: 0.25 µg/mL

Question: And the minimum inhibitory concentration (rifampicin)?
Answer: < 0.001 µg/mL

Question: What about the minimum inhibitory concentration (fidaxomicin) of the same test system?
Answer: 0.06 µg/mL

Question: What about the minimum inhibitory concentration (clindamycin) of the same test system?
Answer: 16 µg/mL

Question: What does the source list for “Clostridioides difficile PCR ribotype 014 isolate #303 (European region: West, country: France, isolate source: Animal, ribotype: 014)”?
Answer: minimum inhibitory concentration (linezolid): 2 µg/mL; minimum inhibitory concentration (imipenem): 1 µg/mL; minimum inhibitory concentration (tigecycline): < 0.03 µg/mL; minimum inhibitory concentration (vancomycin): 0.5 µg/mL; minimum inhibitory concentration (meropenem): 4 µg/mL; minimum inhibitory concentration (metronidazole): 0.25 µg/mL; minimum inhibitory concentration (rifampicin): < 0.001 µg/mL; minimum inhibitory concentration (fidaxomicin): 0.06 µg/mL; minimum inhibitory concentration (clindamycin): 16 µg/mL

Question: “Clostridioides difficile PCR ribotype 015 isolate #82 (European region: North, country: UK, isolate source: Human, ribotype: 015)” was tested. Which minimum inhibitory concentration (linezolid) did it give?
Answer: 2 µg/mL

Question: What about the minimum inhibitory concentration (imipenem) of the same test system?
Answer: 2 µg/mL

Question: What about the minimum inhibitory concentration (tigecycline) of the same test system?
Answer: < 0.03 µg/mL

Question: What about the minimum inhibitory concentration (vancomycin) of the same test system?
Answer: 1 µg/mL

Question: What about the minimum inhibitory concentration (meropenem) of the same test system?
Answer: 2 µg/mL

Question: What about the minimum inhibitory concentration (metronidazole) of the same test system?
Answer: 0.25 µg/mL

Question: What about the minimum inhibitory concentration (rifampicin) of the same test system?
Answer: < 0.001 µg/mL

Question: And the minimum inhibitory concentration (fidaxomicin)?
Answer: 0.008 µg/mL

Question: What about the minimum inhibitory concentration (clindamycin) of the same test system?
Answer: 8 µg/mL

Question: How did the minimum inhibitory concentration (linezolid) turn out when “Clostridioides difficile PCR ribotype 015 isolate #83 (European region: North, country: UK, isolate source: Human, ribotype: 015)” was run?
Answer: 2 µg/mL

Question: What about the minimum inhibitory concentration (imipenem) of the same test system?
Answer: 2 µg/mL

Question: And the minimum inhibitory concentration (tigecycline)?
Answer: < 0.03 µg/mL

Question: What about the minimum inhibitory concentration (vancomycin) of the same test system?
Answer: < 0.125 µg/mL

Question: And the minimum inhibitory concentration (meropenem)?
Answer: 8 µg/mL

Question: What about the minimum inhibitory concentration (metronidazole) of the same test system?
Answer: < 0.125 µg/mL

Question: And the minimum inhibitory concentration (rifampicin)?
Answer: > 32 µg/mL

Question: What about the minimum inhibitory concentration (fidaxomicin) of the same test system?
Answer: 0.06 µg/mL

Question: And the minimum inhibitory concentration (clindamycin)?
Answer: 16 µg/mL

Question: For “Clostridioides difficile PCR ribotype 015 isolate #84 (European region: North, country: UK, isolate source: Human, ribotype: 015)”, which minimum inhibitory concentration (linezolid) is on record?
Answer: 2 µg/mL

Question: What about the minimum inhibitory concentration (imipenem) of the same test system?
Answer: 4 µg/mL

Question: And the minimum inhibitory concentration (tigecycline)?
Answer: < 0.03 µg/mL

Question: What about the minimum inhibitory concentration (vancomycin) of the same test system?
Answer: 0.25 µg/mL

Question: What about the minimum inhibitory concentration (meropenem) of the same test system?
Answer: 4 µg/mL

Question: What about the minimum inhibitory concentration (metronidazole) of the same test system?
Answer: < 0.125 µg/mL

Question: And the minimum inhibitory concentration (rifampicin)?
Answer: < 0.001 µg/mL

Question: And the minimum inhibitory concentration (fidaxomicin)?
Answer: 0.06 µg/mL

Question: And the minimum inhibitory concentration (clindamycin)?
Answer: < 0.125 µg/mL

Question: For “Clostridioides difficile PCR ribotype 015 isolate #85 (European region: West, country: France, isolate source: Human, ribotype: 015)”, which minimum inhibitory concentration (linezolid) is on record?
Answer: 2 µg/mL

Question: What about the minimum inhibitory concentration (imipenem) of the same test system?
Answer: 2 µg/mL

Question: What about the minimum inhibitory concentration (tigecycline) of the same test system?
Answer: < 0.03 µg/mL

Question: And the minimum inhibitory concentration (vancomycin)?
Answer: 0.5 µg/mL

Question: What about the minimum inhibitory concentration (meropenem) of the same test system?
Answer: 2 µg/mL

Question: What about the minimum inhibitory concentration (metronidazole) of the same test system?
Answer: < 0.125 µg/mL

Question: What about the minimum inhibitory concentration (rifampicin) of the same test system?
Answer: < 0.001 µg/mL

Question: And the minimum inhibitory concentration (fidaxomicin)?
Answer: 0.06 µg/mL

Question: What about the minimum inhibitory concentration (clindamycin) of the same test system?
Answer: 16 µg/mL

Question: With “Clostridioides difficile PCR ribotype 015 isolate #86 (European region: North, country: UK, isolate source: Human, ribotype: 015)” as the test system, how does the minimum inhibitory concentration (linezolid) read?
Answer: 2 µg/mL

Question: And the minimum inhibitory concentration (imipenem)?
Answer: 2 µg/mL

Question: And the minimum inhibitory concentration (tigecycline)?
Answer: 0.06 µg/mL

Question: What about the minimum inhibitory concentration (vancomycin) of the same test system?
Answer: 1 µg/mL

Question: What about the minimum inhibitory concentration (meropenem) of the same test system?
Answer: 2 µg/mL

Question: And the minimum inhibitory concentration (metronidazole)?
Answer: < 0.125 µg/mL

Question: And the minimum inhibitory concentration (rifampicin)?
Answer: < 0.001 µg/mL

Question: What about the minimum inhibitory concentration (fidaxomicin) of the same test system?
Answer: 0.03 µg/mL

Question: And the minimum inhibitory concentration (clindamycin)?
Answer: 0.5 µg/mL

Question: Which minimum inhibitory concentration (linezolid) does the source give for “Clostridioides difficile PCR ribotype 015 isolate #87 (European region: North, country: UK, isolate source: Human, ribotype: 015)” here?
Answer: 2 µg/mL

Question: And the minimum inhibitory concentration (imipenem)?
Answer: 2 µg/mL

Question: And the minimum inhibitory concentration (tigecycline)?
Answer: 0.06 µg/mL

Question: And the minimum inhibitory concentration (vancomycin)?
Answer: 1 µg/mL

Question: And the minimum inhibitory concentration (meropenem)?
Answer: 2 µg/mL

Question: And the minimum inhibitory concentration (metronidazole)?
Answer: < 0.125 µg/mL

Question: What about the minimum inhibitory concentration (rifampicin) of the same test system?
Answer: < 0.001 µg/mL

Question: What about the minimum inhibitory concentration (fidaxomicin) of the same test system?
Answer: 0.008 µg/mL

Question: And the minimum inhibitory concentration (clindamycin)?
Answer: 16 µg/mL

Question: With “Clostridioides difficile PCR ribotype 015 isolate #304 (European region: East, country: Slovakia, isolate source: Animal, ribotype: 015)” as the test system, how does the minimum inhibitory concentration (linezolid) read?
Answer: 1 µg/mL

Question: And the minimum inhibitory concentration (imipenem)?
Answer: 2 µg/mL

Question: What about the minimum inhibitory concentration (tigecycline) of the same test system?
Answer: < 0.03 µg/mL

Question: And the minimum inhibitory concentration (vancomycin)?
Answer: 0.5 µg/mL

Question: What about the minimum inhibitory concentration (meropenem) of the same test system?
Answer: 4 µg/mL

Question: What about the minimum inhibitory concentration (metronidazole) of the same test system?
Answer: < 0.125 µg/mL

Question: What about the minimum inhibitory concentration (rifampicin) of the same test system?
Answer: < 0.001 µg/mL

Question: And the minimum inhibitory concentration (fidaxomicin)?
Answer: 0.06 µg/mL

Question: What about the minimum inhibitory concentration (clindamycin) of the same test system?
Answer: 0.25 µg/mL
